In US20230340011A1 (Asteroid Therapeutics, priority 2022, published 2023):
For at least one compound, name, drawing or mass did not settle the structure.

Chains of the proteins cited; added tags and fusions are not shown.
UniProt P55055, whole entry: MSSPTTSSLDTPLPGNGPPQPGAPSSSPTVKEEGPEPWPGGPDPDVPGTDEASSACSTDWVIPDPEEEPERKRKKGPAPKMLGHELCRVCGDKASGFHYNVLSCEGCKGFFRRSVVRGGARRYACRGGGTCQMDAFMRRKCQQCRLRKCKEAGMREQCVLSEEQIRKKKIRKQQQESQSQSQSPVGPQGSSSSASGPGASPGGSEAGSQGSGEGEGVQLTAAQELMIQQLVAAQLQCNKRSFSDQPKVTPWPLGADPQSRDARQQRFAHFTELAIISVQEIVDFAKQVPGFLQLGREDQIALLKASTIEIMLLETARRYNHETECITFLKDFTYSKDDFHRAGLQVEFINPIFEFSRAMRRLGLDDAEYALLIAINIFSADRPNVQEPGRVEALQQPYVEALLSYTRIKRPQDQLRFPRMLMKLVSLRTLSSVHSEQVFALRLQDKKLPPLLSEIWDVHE

Target: LXRβ (Homo sapiens (Human), UniProt P55055)
Experiment: In vitro assay LXRβ: PathHunter NHR CHO cells, LXRβ / Steroid Receptor Co-activator Peptide enzyme fragment complementation
Assay type: cell-based
Conditions: full-length human LXRβ and SRCP, chemiluminescent signal, read-out: LXRβ PPI
Description: PathHunter NHR CHO cells stably transfected with tagged full-length human LXRβ and a nuclear fusion protein containing Steroid Receptor Co-activator Peptide (SRCP). The full-length human LXRβ was tagged with the ProLink™ component of the DiscoverX Enzyme Fragment Complementation (EFC) system and the SRCP domain is fused to the enzyme acceptor component (EA) expressed in the nucleus. Cells were seeded in a total volume of 20 μL into white walled, 384-well microplates and incubated at 37° C. overnight prior to testing. Assay media contained charcoal-dextran filtered serum to reduce the level of hormones present. Final assay vehicle concentration was 1%. […] Microplates were read following signal generation with a PerkinElmer Envision instrument for chemiluminescent signal detection.

In the case of `CCON(C)C(=O)CC[C@@H](C)[C@H]1CC[C@H]2[C@@H]3CC=C4C[C@@H](O)CC[C@]4(C)[C@H]3CC[C@]12C` [Example 10, (R)—N-ethoxy-4-((3S,8S,9S,10R,13R,14S,17R)-3-hydroxy-10,13-dimethyl-2,3,4,7,8,9,10,11,12,13,14,15,16,17-tetradecahydro-1H-cyclopenta[a]phenanthren-17-yl)-N-methylpentanamide], the EC50 is reported as < 250 nM.
